In US4835156A, “Vasodilatory dihydrodibenzocycloheptyliden-ethyl piperazine derivatives and process for the preparation of these compounds” (Sociedad Espanola De Especialidades Terepeuticas, S.A., priority 1983, dated 1989):

Experiments:
Rat hind-quarters = experiment: Vasodilatory activity, isolated rat hind-quarters (antagonism of vasoconstriction by hyperkalaemic Tyrode solution); parameters: key: ++++: Very intense activity; +++: Considerable activity; ++: Low activity; +: Low activity; 0: Null activity; conditions: crosses relative to standard drugs cinnarizine and flunarizine;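 also: four crosses equal an effect comparable to the standard drug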
From the text: (§1) The significance of the symbols is as follows:
In order to test the vasodilatory activity, the first trial employs the technique of the isolated rat hind-quarters (Table 2), which involves antagonizing the vasoconstrictive effect of perfusion of hyperkalaemic Tyrode solution, according to the method of F. N. Fastier and F. H. Smirk (J. Pharm. Exp. Therap. 89, […] (1947)), and then calculating for the products which show the greatest activity, the ED30, that is the dose which produces a 30% vasodilatory activity with respect to the basic vasoconstriction.

[1] = tested on: Rabbit cerebral territory; experiment: Vasodilation in perfused rabbit cerebral territory (variation in perfusion pressure); format: in vivo; parameters: key to Vasodilatory Activity (Rabbit cerebral territory) Evaluation: ++++: Very intense activity; +++: Considerable activity; ++: Low activity; +: Low activity; 0: Null activity;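 as to Vasodilatory Activity (Rabbit cerebral territory) Evaluation: four crosses equal an effect comparable to the standard drug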
Description: as §1
In a further trial, the vasodilatory activity is evaluated by the technique of vasodilation in perfused rabbit cerebral territory as described by P. Vaupel and H. Hutten (Arzneim. Forsch./Drug Res. 30(I), 598-602 (1980)), calculating the variation in perfusion pressure after treatment (Table 3).
Table 3 employs the same conventional signs based on crosses, with the same relative significance as in Table 2.
The standard drug employed is cinnarizine.
(*) Calculated by multiplying the % vasodilation by duration of action.

SMILES: C(=C\c1ccccc1)/CN1CCN(C(c2ccccc2)c2ccccc2)CC1 [Cinnarizine, reference compound]
- Vasodilatory Activity (Rat hind-quarters) Evaluation (Rat hind-quarters): ++++
- Vasodilatory Index ([1]; % vasodilation multiplied by duration of action): 535.0 mm^2
- Vasodilatory Activity (Rabbit cerebral territory) Evaluation ([1]; crosses relative to standard cinnarizine): ++++
